Values joined by “and” are separate entries in the source; they are usually repeats but may differ in a detail not shown here. Equal values may be shown once. At least one read-out could not be matched to a standard name with certainty.
System: male rabbits
Assay: fur growth on shorn back of rabbits
Format: in vivo
Details: individual rabbit, twice a day for one week; for Difference b: test side minus control side, 0.2% fatty acid solution; for Grown fur length Test side a': 0.2% fatty acid solution in 80% aqueous ethanol
Method: Ten week old male rabbits were shorn on the back. A 0.2% fatty acid solution in 80% aqueous ethanol solution was applied, twice a day, to a half-side of the shorn portion of each rabbit for one week. As a control, a 80% aqueous ethanol solution was also applied, twice a day, to the other half-side of the shorn portion of each rabbit for one week (two week for linoleic acid). The length of the grown fur was measured.

| Compound | Difference b | Grown fur length Test side a' |
| --- | --- | --- |
| CCCCCCCCCCCCCC(=O)O [Myristic acid, myristic acid] | 0.86 and 0.93 and 0.57 (2×) and 0.71 and 0.41 and 1.06 and 0.62 and 0.61 and 0.27 | 7.97 ± 0.25 and 10.30 ± 0.35 and 6.4 ± 0.24 and 7.08 ± 0.24 and 4.60 ± 0.23 and 11.25 ± 0.38 and 2.69 ± 0.20 and 5.08 ± 0.13 and 8.70 ± 0.15 and 1.76 ± 0.09 |
| CCCCC/C=C\C/C=C\C/C=C\C/C=C\CCCC(=O)O [Arachidonic acid, arachidonic acid] | 0.74 (2×) and 0.8 and 1.38 and 0.77 and 0.71 and 0.39 and 0.3 and 0.58 | 7.36 ± 0.23 and 5.92 ± 0.10 and 11.89 ± 0.42 and 11.01 ± 0.40 and 5.22 ± 0.33 and 10.67 ± 0.31 and 10.47 ± 0.45 and 1.51 ± 0.13 and 1.79 ± 0.07 and 9.77 ± 0.20 |
| CCCCCCCCCCC/C=C\CCCCC(=O)O [Petroselinic acid, petroselinic acid] | 0.30 and 0.92 and 0.20 and 0.14 and 0.95 | 5.35 ± 0.09 and 8.49 ± 0.18 and 5.80 ± 0.08 and 1.72 ± 0.07 and 11.95 ± 0.40 |
| CCCCCCCCCCCC(=O)O [Lauric acid, lauric acid] | 0.71 and 1.17 and 1.24 and 0.26 and 0.82 and 1.42 and 0.76 and 0.6 and 0.37 and 0.41 | 9.51 ± 0.35 and 7.65 ± 0.13 and 7.00 ± 0.26 and 1.61 ± 0.07 and 6.88 ± 0.44 and 7.94 ± 0.45 and 7.10 ± 0.26 and 4.80 ± 0.22 and 2.31 ± 0.14 and 1.87 ± 0.18 |

Reference: patent publication EP0116439A2, “Fatty acid containing hair tonic composition” (priority 1983, dated 1984)
